Results published in publication doi:10.1101/2024.10.10.617637.

Sequences of proteins named here, by UniProt entry; tags and fusion partners are left off.
UniProt P41091: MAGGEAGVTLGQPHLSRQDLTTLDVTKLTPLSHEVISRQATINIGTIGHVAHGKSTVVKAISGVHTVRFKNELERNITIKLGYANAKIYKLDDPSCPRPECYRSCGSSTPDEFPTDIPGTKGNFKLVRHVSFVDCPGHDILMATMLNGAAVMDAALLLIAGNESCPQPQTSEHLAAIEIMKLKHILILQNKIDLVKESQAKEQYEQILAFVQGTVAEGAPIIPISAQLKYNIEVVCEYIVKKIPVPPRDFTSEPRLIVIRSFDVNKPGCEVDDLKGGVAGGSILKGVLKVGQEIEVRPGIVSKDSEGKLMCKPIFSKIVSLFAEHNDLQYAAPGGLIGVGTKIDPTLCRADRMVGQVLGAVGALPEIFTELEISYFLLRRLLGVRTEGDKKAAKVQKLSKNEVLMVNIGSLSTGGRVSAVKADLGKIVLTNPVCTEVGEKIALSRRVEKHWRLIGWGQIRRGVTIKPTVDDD
UniProt P20042: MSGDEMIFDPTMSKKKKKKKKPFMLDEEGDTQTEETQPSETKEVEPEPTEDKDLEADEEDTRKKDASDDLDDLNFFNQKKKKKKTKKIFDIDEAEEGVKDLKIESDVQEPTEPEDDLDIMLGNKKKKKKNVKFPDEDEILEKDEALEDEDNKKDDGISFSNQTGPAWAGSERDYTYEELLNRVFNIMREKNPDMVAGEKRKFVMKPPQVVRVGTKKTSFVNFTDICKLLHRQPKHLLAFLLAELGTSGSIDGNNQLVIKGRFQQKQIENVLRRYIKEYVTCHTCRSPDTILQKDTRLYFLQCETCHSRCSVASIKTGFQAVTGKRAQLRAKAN
UniProt P05198: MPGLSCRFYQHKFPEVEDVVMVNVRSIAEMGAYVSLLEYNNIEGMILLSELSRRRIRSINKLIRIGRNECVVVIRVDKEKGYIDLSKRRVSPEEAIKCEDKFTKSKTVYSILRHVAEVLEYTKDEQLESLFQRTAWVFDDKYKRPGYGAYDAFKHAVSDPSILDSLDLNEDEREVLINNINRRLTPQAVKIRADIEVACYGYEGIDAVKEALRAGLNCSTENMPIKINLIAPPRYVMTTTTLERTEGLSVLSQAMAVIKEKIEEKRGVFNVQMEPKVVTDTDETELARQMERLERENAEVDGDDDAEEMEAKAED

Target: T1, RBM42 (RNA binding motif protein 42), endogenous (human (endogenous in Panc-1)) (UniProt Q9BTD8)
T1 sequence: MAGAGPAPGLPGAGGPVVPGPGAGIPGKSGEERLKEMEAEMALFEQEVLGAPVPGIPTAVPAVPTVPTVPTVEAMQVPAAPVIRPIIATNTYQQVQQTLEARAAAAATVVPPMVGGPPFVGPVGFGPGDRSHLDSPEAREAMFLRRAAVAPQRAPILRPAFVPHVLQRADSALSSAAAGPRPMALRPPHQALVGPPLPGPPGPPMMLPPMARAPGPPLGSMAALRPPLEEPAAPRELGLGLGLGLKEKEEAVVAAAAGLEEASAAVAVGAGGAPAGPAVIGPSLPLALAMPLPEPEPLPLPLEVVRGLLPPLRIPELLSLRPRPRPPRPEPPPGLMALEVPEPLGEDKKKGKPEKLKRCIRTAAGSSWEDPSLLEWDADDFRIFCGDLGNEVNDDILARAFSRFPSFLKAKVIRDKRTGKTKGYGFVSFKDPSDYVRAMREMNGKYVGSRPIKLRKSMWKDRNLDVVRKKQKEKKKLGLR
Experiment: affinity purification with mass spectrometry

Substance	binding
eIF2γ (from UniProt P41091 1-472)	binds
eIF2β (from UniProt P20042 1-333)	binds
eIF2α (from UniProt P05198 1-315)	binds

No constants are given. Whether binding was seen depends on the method and setting. Binding seen in cells or lysates may run through a third protein. Here binding means that the protein was enriched with, or labelled near, the bait; the list need not be complete.
